In PMC5074368 one finds binding data, which are given here for 2 molecules.

These are yes or no findings as the source states them, for the method shown. For part of these data: Binding can be weak; no strength is given.

Common to all, as to test: two-hybrid; mammalian two-hybrid in CHO cells; myosin VI tail WT and mutants in the bait vector pM, binding partners in the prey vector pVP16; read with a microplate luminometer
The target in assay [1] is Myosin VI globular tail (amino acids 1036–1294) I1252A, in the bait vector pM (human).
In assay [2] the target is Myosin VI globular tail (amino acids 1036–1294) R1108A, in the bait vector pM (human).
For assay [3], the target named is Myosin VI globular tail (amino acids 1036–1294) W1253A, in the bait vector pM (human).

B1: Dab2 in the prey vector pVP16 (protein, UniProt P98082 1-770)
chain: MSNEVETSATNGQPDQQAAPKAPSKKEKKKGPEKTDEYLLARFKGDGVKYKAKLIGIDDVPDARGDKMSQDSMMKLKGMAAAGRSQGQHKQRIWVNISLSGIKIIDEKTGVIEHEHPVNKISFIARDVTDNRAFGYVCGGEGQHQFFAIKTGQQAEPLVVDLKDLFQVIYNVKKKEEEKKKIEEASKAVENGSEALMILDDQTNKLKSGVDQMDLFGDMSTPPDLNSPTESKDILLVDLNSEIDTNQNSLRENPFLTNGITSCSLPRPTPQASFLPENAFSANLNFFPTPNPDPFRDDPFTQPDQSTPSSFDSLKSPDQKKENSSSSSTPLSNGPLNGDVDYFGQQFDQISNRTGKQEAQAGPWPFSSSQTQPAVRTQNGVSEREQNGFSVKSSPNPFVGSPPKGLSIQNGVKQDLESSVQSSPHDSIAIIPPPQSTKPGRGRRTAKSSANDLLASDIFAPPVSEPSGQASPTGQPTALQPNPLDLFKTSAPAPVGPLVGLGGVTVTLPQAGPWNTASLVFNQSPSMAPGAMMGGQPSGFSQPVIFGTSPAVSGWNQPSPFAASTPPPVPVVWGPSASVAPNAWSTTSPLGNPFQSNIFPAPAVSTQPPSMHSSLLVTPPQPPPRAGPPKDISSDAFTALDPLGDKEIKDVKEMFKDFQLRQPPAVPARKGEQTSSGTLSAFASYFNSKVGIPQENADHDDFDANQLLNKINEPPKPAPRQVSLPVTKSTDNAFENPFFKDSFGSSQASVASSQPVSSEMYRDPFGNPFA
With B1, the binding result in assay [1] is “binds”.

B2: NDP52 in the prey vector pVP16 (protein, UniProt Q13137 1-446)
chain: MEETIKDPPTSAVLLDHCHFSQVIFNSVEKFYIPGGDVTCHYTFTQHFIPRRKDWIGIFRVGWKTTREYYTFMWVTLPIDLNNKSAKQQEVQFKAYYLPKDDEYYQFCYVDEDGVVRGASIPFQFRPENEEDILVVTTQGEVEEIEQHNKELCKENQELKDSCISLQKQNSDMQAELQKKQEELETLQSINKKLELKVKEQKDYWETELLQLKEQNQKMSSENEKMGIRVDQLQAQLSTQEKEMEKLVQGDQDKTEQLEQLKKENDHLFLSLTEQRKDQKKLEQTVEQMKQNETTAMKKQQELMDENFDLSKRLSENEIICNALQRQKERLEGENDLLKRENSRLLSYMGLDFNSLPYQVPTSDEGGARQNPGLAYGNPYSGIQESSSPSPLSIKKCPICKADDICDHTLEQQQMQPLCFNCPICDKIFPATEKQIFEDHVFCHSL
For B2, the figures for the binding entry in assay [2] and in assay [3] were “no binding” and “binds”, respectively.
